Measured values as given in patent US20140121235A1, “Method for Treating S6K-Overexpressing Cancers” (Rush University Medical Center, priority 2012, published 2014).
At least one compound was matched to its structure with a doubt left.

How the values were obtained:
Format in all cases: cell-based
A375 cells [1] = experiment: Cell cycle analysis (propidium iodine, flow cytometer); conditions: 24 hr, PLX4720 1 μM, U0126 10 μM, PD98059 10 μM, rapamycin 20 nM, LY294002 10 μM
Experimental: (A) Ability of uridine to relieve the cell cycle arrest in the S phase. A375 cells grown in 6-well plates were treated with the indicated concentration of A771726 with or without uridine (200 μM) for 24 hr. Cell cycle was analyzed in a flow cytometer as described in Materials and Methods. (B) Effect of the MAP kinase pathway inhibitors on A77 1726-mediated cell cycle arrest in the S phase. A375 cells were treated with A771726 (100 μM) in the absence or presence of 0.1% DMSO, […] (1 μM), U0126 (10 μM), PD98059 (10 for 24 hr. Single cell suspensions were prepared and analyzed for cell cycle in a flow cytometer. (C) Effect of the PI-3 kinase pathway inhibitors and their effect on A77 1726-mediated cell cycle arrest. A375 cells were treated with A77 1726 (100 μM), rapamycin (20 nM), and/or LY294002 (10 μM). After incubation for 24 hr, cells were harvested and analyzed for cell cycle progress.
Cells were grown in complete RPMI1640 medium with 10% fetal bovine serum in 6-well plates. Upon 60% confluence, the cells were treated with vehicle or with indicated concentrations of A77 1726 or various inhibitors as indicated for 24 hr. Cells were pulsed with 10 μM BrdU for 2 hr. […] After incubation at room temperature for 30 min, cells were stained with 2.5 μl propidium iodine (10 mg/ml.) and immediately analyzed for DNA content in a flow cytometer.

[2] = system: ribosomal protein S6^S235/S236 phosphorylation; experiment: Western blot of S6 phosphorylation in A375 cells; conditions: A77 1726 dose-dependent or 100 μM, rapamycin 20 nM, PPP 1 μM
Experimental: (§1) A375 cells seeded in a 6-well plate were starved in DMEM medium containing 0.5% FBS for 2 hr and treated with the indicated concentration of A77 1726 or PLX 4720 (1 μM) for another 2 hr (A) or treated with A77 1726 (100 μM) for the indicated time (B & C). Cells were harvested and analyzed for protein phosphorylation by specific antibodies as indicated. Protein loading was monitored by stripping membrane and re-probing with antibodies against non-phosphorylated proteins. […] A375 cells seeded in a 6-well plate were starved in DMEM medium containing 05% FBS for 2 hr and treated with the indicated concentration of A77 1726 in the absence or presence of uridine (200 μM). Phosphorylated and total proteins were analyzed by Western blot as described above.
(§2) A375 cells seeded in 6-well plates were starved in DMEM medium containing 0.5% FBS for 2 hr and then pre-treated with vehicle (0.1% dimethyl sulfoxide), LY294002 (10 μM) (A), PPP (1 μM) (B), or the inhibitors of the MAP kinase pathway (PLX4720, 1 μM; U0126, 10 μM; PD98059, 10 μM) (C) for 1 hr. Cells were then treated with A77 1726 (100 μM) or rapamycin (20 nM) as indicated for 2 hr. Cells were harvested and analyzed for protein phosphorylation by specific antibodies as indicated. Protein loading was monitored by stripping membrane and re-probing with antibodies against non-phosphorylated proteins. […]

[3] = system: AKT^S473 and S6K1^T389 phosphorylation; experiment: Western blot of PI-3 kinase pathway phosphorylation in A375 cells
Experimental: as §1
A375 cells seeded in 6-well plates were starved in DMEM medium containing 0.5% FBS for 2 hr and then pre-treated with vehicle (0.1% dimethyl sulfoxide), LY294002 (10 μM) (A), PPP (1 μM) (B), or the inhibitors of the MAP kinase pathway (PLX4720, 1 μM; U0126, 10 μM; PD98059, 10 μM) (C) for 1 hr. Cells were then treated with A77 1726 (100 μM) or rapamycin (20 nM) as indicated for 2 hr. Cells were harvested and analyzed for protein phosphorylation by specific antibodies as indicated. Protein loading was monitored by stripping membrane and re-probing with antibodies against non-phosphorylated proteins.
Cells grown in 6-well plates were harvested and lysed in NP-40 lysis buffer (50 mM Tris-HCI (pH 8.0), 150 mM NaCl, 1% NP-40, 5 mM EDTA, 10 μg/ml aprotinin, 10 μg/ml leupeptin, and 1 mM phenylmethylsulfonyl fluoride). After incubation on ice for 30 min, the cell lysates were prepared by spinning down at 4° C., 15,000 rpm for 15 min. After electrophoresis and transfer to Immobolin membrane, proteins of interest were probed with their specific antibodies, followed by horseradish peroxidase-conjugated goat anti-rabbit IgG and SuperSignal Western Pico enhanced chemiluminoscence substrate (Pierce Chemical Co., Rockford, Ill.). […]

[4] = system: ERK1/2^T202/Y204 and MEK1/2^S217/S221 phosphorylation; experiment: Western blot of MAP kinase pathway phosphorylation in A375 cells
Experimental: as §1, §2

A375 cells [5] = experiment: BrdU incorporation (DNA replication), flow cytometry; conditions: for block of A77 1726-induced BrdU incorporation / DNA synthesis: A77 1726 100 μM plus inhibitor; for effect on DNA replication (BrdU labeling), inhibitor alone: PLX4720 1 μM, U0126 10 μM, rapamycin 20 nM, LY294002 10 μM
Experimental: (A) The effect of uridine to A77 1726-induced DNA synthesis. A375 cells were treated with the indicated concentration of A771726 in the absence or presence of uridine (200 μM) for 22 hr. After pulsing with BrdU (10 µM) for 2 hr, cells were harvested and analyzed for BrdU incorporation by staining with an Alexa Fluor-488-conjugated anti-BrdU monoclonal antibody followed by flow cytometry. (B) Effect of the MAP kinase pathway inhibitors to A77 1726-stimulated BrdU incorporation. A375 cells were treated with A77 1726 (100 μM) in the presence of 0.1% DMSO, PLX4720 (1 μM), U0126 (10 µM), PD98059 (10 μM). After incubation for 22 hr the cells were pulsed with BrdU for 2 hr. Single cell suspensions were stained for BrdU incorporation and analyzed for cell cycle in a flow cytometer as described in (A). (C) Effect of the PI-3 kinase pathway inhibitors and their effect on A77 1726-stimualted BrdU incorpration. A375 cells were treated with A771726 (100 μM), rapamycin (20 nM), and/or […] (10 μM). After incubation for 22 hr, cells were pulsed with BrdU for 2 hr, harvested and analyzed for BrdU labeling in a flow cytometer.
Cells were grown in complete RPMI1640 medium with 10% fetal bovine serum in 6-well plates. Upon 60% confluence, the cells were treated with vehicle or with indicated concentrations of A77 1726 or various inhibitors as indicated for 24 hr. Cells were pulsed with 10 μM BrdU for 2 hr. Cells were harvested, denatured with 2N HCl for 5 min at room temperature followed by neutralization with 0.1M borate buffer (pH 8.5). After washing and blocking with normal mouse serum, the cells were stained with an Alexa Fluor 488-conjugated anti-BrdU monoclonal antibody (BD Bioscience), followed by analysis in a flow cytometer. Alexa Fluor 488-conjugated mouse IgG was included as a control. For cell cycle analysis, the cells were harvested and fixed with 2 ml cold 70% ethanol in PBS overnight at 4° C. Fixed cells were then washed 3 times with PBS, treated with RNaseA (100 μg/ml in 0.5 ml PBS). After incubation at room temperature for 30 min, cells were stained with 2.5 μl propidium iodine (10 mg/ml.) and immediately analyzed for DNA content in a flow cytometer.

| SMILES | effect on cell cycle, inhibitor alone (A375 cells [1]) | effect on S6^S235/S236 phosphorylation [2] | effect on AKT^T473 phosphorylation ([3]; A375 cells, A77 1726 100 μM, rapamycin 20 nM, PPP 1 μM) | effect on S6K1 phosphorylation ([3]; A375 cells, rapamycin 20 nM) | effect on ERK1/2 and MEK phosphorylation, inhibitor alone ([4]; A375 cells, PLX 4720 1 μM, rapamycin 20 nM, PPP 1 μM) | block of A77 1726-induced BrdU incorporation / DNA synthesis (A375 cells [5]) | effect on DNA replication (BrdU labeling), inhibitor alone (A375 cells [5]) | block of A77 1726- and rapamycin-induced AKT phosphorylation ([3]; A375 cells pre-treated with LY294002 10 μM or PPP 1 μM) | block of A77 1726-induced ERK1/2 and MEK1/2 phosphorylation ([4]; A375 cells pre-treated with inhibitor 1 hr, then A77 1726 100 μM 2 hr) |
| --- | --- | --- | --- | --- | --- | --- | --- | --- | --- |
| CO[C@H]1C[C@@H]2CC[C@@H](C)[C@@](O)(O2)C(=O)C(=O)N2CCCC[C@H]2C(=O)O[C@H]([C@H](C)C[C@@H]2CC[C@@H](O)[C@H](OC)C2)CC(=O)[C@H](C)/C=C(\C)[C@@H](O)[C@@H](OC)C(=O)[C@H](C)C[C@H](C)/C=C/C=C/C=C/1C [rapamycin] | arrest of cell cycle in the G-1 phase | inhibited | induced | inhibited | only minimally induced | slightly attenuated | did not significantly affect DNA synthesis |  |  |
| O=c1cc(N2CCOCC2)oc2c(-c3ccccc3)cccc12 [LY294002] | arrest of cell cycle in the G-1 phase |  |  |  |  | slightly attenuated | did not significantly affect DNA synthesis | largely block | little effect |
